PubChem BioAssay AID720505 – Drosophila RNAi Screening Center | 2013
The screen tested about 20,000 reagents; this is an unselected part of those with a known target gene and a result. Of all reagents, about 2,100 (10%) are marked active. 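Raw plate signals without normalisation; calls rest on control-based scores that were not deposited; replicate 2 separates called from uncalled poorly.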 A plus sign joins genes that one reagent is predicted to hit. Not given: the amount of reagent, the time to read-out.

- Screen: 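Fly regulators or components of the CRAC channel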 (primary screen)
- System: Drosophila S2R+ cells
- Reagent: long dsRNA against Drosophila genes
- Conditions: thapsigargin (2 µM) in calcium-free buffer to empty internal stores, then 2 mM calcium added back
- Read-out: 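Fluo-4 signal in 384-well plates read on a FLIPR after thapsigargin (2 µM, calcium-free) store depletion and 2 mM calcium add-back; unnormalised mean endpoint per well; screen run twice, selected wells retested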
- Reading the numbers: calcium signal and retest calcium signal: higher = more calcium entry after store depletion
- Active means: 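Knock-downs counted as hits when calcium entry dropped relative to STIM1 positive and Rho1 negative controls present on each plate; roughly 1500 genes called, with reductions of differing size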
- Calls: active = called as lowering calcium entry; inactive = not called

gene knocked down | amplicon | calcium signal, replicate 1 | calcium signal, replicate 2 | retest calcium signal, replicate 1 | retest calcium signal, replicate 2 | call
RPA3 | DRSC19658 | 68.2 | 91.6 | – | – | inactive
CecA1 | DRSC16603 | 74.2 | 120 | – | – | active
CG33770 | DRSC11717 | 107 | 112 | – | – | inactive
CG14500 | DRSC06471 | 153 | 144 | – | – | inactive
CG42471 | DRSC01210 | 122 | 154 | – | – | active
CG18418 | DRSC08535 | 79 | 84.5 | – | – | inactive
AttB | DRSC06734 | 126 | 244 | – | – | inactive
CG34135 + Nasp + CG11768 | DRSC14377 | 133 | 211 | – | – | inactive
CG34135 + Nasp + CG11768 | DRSC16397 | 87.2 | 124 | – | – | inactive
CG34135 + Nasp + CG11768 | DRSC23219 | 102 | 148 | – | – | inactive
E(spl)mdelta-HLH | DRSC16698 | 207 | 168 | – | – | inactive
pHCl-2 | DRSC14306 | 220 | 131 | – | – | inactive
Glut3 | DRSC16681 | 164 | 91.4 | – | – | inactive
RpL10Aa | DRSC15518 | 145 | 192 | – | – | inactive
Ugt304A1 | DRSC15127 | 84.9 | 74.7 | – | – | inactive
CG31213 | DRSC14312 | 107 | 105 | – | – | inactive
CG31213 | DRSC15647 | 177 | 121 | – | – | inactive
CG33679 | DRSC01436 | 66.1 | 169 | – | – | active
dah | DRSC20320 | 121 | 104 | – | – | inactive
His1:CG33816 + His1:CG33828 + His1:CG33819 + 21 more | DRSC21266 | 190 | 92.5 | – | – | inactive
Tctp | DRSC15649 | 103 | 102 | – | – | inactive
CG13901 | DRSC08371 | 86.8 | 89.6 | – | – | inactive
CG31681 | DRSC00107 | 92.1 | 180 | – | – | inactive
Cdlc2 | DRSC00743 | 170 | 324 | – | – | inactive
Rcd7 | DRSC10100 | 100 | 146 | – | – | inactive
TotM | DRSC02355 | 160 | 95.9 | – | – | inactive
ND-B17 | DRSC01981 | 115 | 90.6 | – | – | inactive
lmgA + lmgB | DRSC03566 | 198 | 136 | – | – | inactive
CG11406 | DRSC04010 | 64.4 | 87.9 | – | – | active
CG11406 | DRSC04108 | 99.8 | 142 | – | – | inactive
CG16815 | DRSC02521 | 101 | 145 | – | – | inactive
CR41501 | DRSC07785 | 113 | 96.3 | – | – | inactive
CG7824 | DRSC16321 | 190 | 148 | – | – | inactive
CG15594 | DRSC12280 | 123 | 102 | – | – | inactive
SAK | DRSC11879 | 102 | 191 | – | – | inactive
SAK | DRSC23329 | 115 | 145 | – | – | inactive
disco-r | DRSC20173 | 99 | 101 | – | – | inactive
disco-r | DRSC20174 | 79.9 | 121 | – | – | inactive
CG10514 | DRSC14249 | 238 | 124 | – | – | inactive
cato | DRSC07589 | 152 | 172 | – | – | inactive
SmydA-2 | DRSC10296 | 46.7 | 105 | – | – | active
robo2 | DRSC00377 | 168 | 151 | – | – | inactive
robo2 | DRSC00378 | 199 | 172 | – | – | inactive
robo2 | DRSC00686 | 200 | 146 | – | – | inactive
robo2 | DRSC00691 | 136 | 167 | – | – | inactive
Gadd45 | DRSC06033 | 152 | 126 | – | – | inactive
Taf4 | DRSC11297 | 109 | 86.2 | – | – | inactive
Alp10 | DRSC09749 | 92.5 | 101 | – | – | inactive
SMC1 | DRSC16846 | 212 | 197 | – | – | inactive
CG12672 | DRSC19482 | 126 | 171 | 5873 | 98.7 | inactive
CG31109 | DRSC14648 | 178 | 121 | – | – | inactive
peng | DRSC20583 | 96.5 | 104 | – | – | inactive
CG11231 (retired record) | DRSC17207 | 77.1 | 108 | – | – | inactive
Alh | DRSC12487 | 134 | 193 | – | – | inactive
Alh | DRSC12488 | 122 | 174 | – | – | inactive
CG13157 | DRSC06282 | 130 | 209 | – | – | inactive
Lamtor1 | DRSC10183 | 126 | 129 | – | – | inactive
ND-49L | DRSC14437 | 280 | 133 | – | – | inactive
rudhira | DRSC19821 | 116 | 161 | – | – | inactive
rudhira | DRSC22111 | 85.4 | 235 | – | – | inactive
rudhira | DRSC23144 | 138 | 163 | – | – | inactive
drn + CG43675 | DRSC15147 | 65.6 | 95.9 | – | – | active
lncRNA:CR32661 + lncRNA:CR43157 | DRSC19794 | 78.3 | 89.1 | – | – | inactive
CG34434 | DRSC18134 | 113 | 79.1 | – | – | inactive
aurB | DRSC03548 | 78.2 | 112 | – | – | inactive
aurB | DRSC23324 | 102 | 142 | – | – | inactive
olf413 | DRSC11679 | 77.9 | 177 | 7403 | 116 | inactive
olf413 | DRSC11721 | 91 | 104 | – | – | inactive
olf413 | DRSC11833 | 106 | 139 | 93 | 92.2 | inactive
PolG1 | DRSC03621 | 89.8 | 141 | – | – | inactive
Sec6 | DRSC06932 | 154 | 102 | – | – | inactive
meru | DRSC09400 | – | – | – | – | active
meru | DRSC09899 | 102 | 145 | – | – | inactive
meru | DRSC10215 | 99.8 | 136 | – | – | inactive
Eig71Ea | DRSC11148 | 69.5 | 165 | – | – | inactive
CG13312 | DRSC09983 | 93.4 | 73.8 | – | – | inactive
CG18662 | DRSC02691 | 88.5 | 130 | – | – | inactive
CG5757 | DRSC06951 | 168 | 89.3 | – | – | inactive
CG42709 | DRSC10277 | 155 | 95.5 | – | – | inactive
JhI-21 | DRSC02161 | 112 | 98.2 | – | – | inactive
CG32040 | DRSC22459 | 109 | 156 | – | – | inactive
Pos | DRSC15415 | 84.8 | 116 | – | – | inactive
Bdbt | DRSC15218 | 148 | 130 | – | – | inactive
CG42335 | DRSC14597 | 128 | 162 | – | – | inactive
CG42335 | DRSC15892 | 166 | 114 | – | – | inactive
CG4364 | DRSC02742 | 86.5 | 72.6 | – | – | inactive
Sec63 | DRSC11002 | 91.5 | 50.3 | 104 | 113 | inactive
Sr-CII | DRSC07557 | 113 | 154 | – | – | inactive
snu | DRSC16589 | 110 | 190 | – | – | inactive
CG8661 | DRSC20115 | 88.4 | 103 | – | – | inactive
CG13699 | DRSC10048 | 122 | 205 | – | – | inactive
CG42703 | DRSC03973 | 69.1 | 7076 | – | – | inactive
CG12692 | DRSC17881 | 172 | 128 | – | – | inactive
CG33090 | DRSC01908 | 106 | 101 | – | – | inactive
Cdk2 | DRSC16921 | 107 | 250 | – | – | inactive
RfC3 | DRSC03411 | 165 | 139 | – | – | inactive
mRpL13 | DRSC02076 | 110 | 116 | – | – | inactive
Gp150 | DRSC04618 | 56.1 | 61.3 | 57.7 | 197 | active
Rilpl | DRSC18494 | 83 | 85 | – | – | inactive
CG9822 | DRSC04568 | 147 | 144 | – | – | inactive
CG9308 | DRSC04539 | 168 | 105 | – | – | inactive
Pvr | DRSC03080 | 107 | 174 | – | – | inactive
CG18088 | DRSC02654 | 89.1 | 106 | – | – | inactive
tHMG1 | DRSC16181 | 125 | 163 | – | – | inactive
CG30369 | DRSC21996 | 109 | 164 | – | – | inactive
Obp56e | DRSC07188 | 189 | 176 | – | – | inactive

8 entries from above, reduced to “calcium signal, replicate 1”.
SAK [DRSC11879] = 102
SAK [DRSC23329] = 115
disco-r [DRSC20173] = 99
disco-r [DRSC20174] = 79.9
CG10514 [DRSC14249] = 238
cato [DRSC07589] = 152
SmydA-2 [DRSC10296] = 46.7
robo2 [DRSC00377] = 168
